Data published in patent publication US6900050 (ROCKEFELLER UNIVERSITY, dated 2005).
Results are given in words; binding and its absence hold for the method and conditions named. For part of these data: In cells and extracts the contact can be indirect. Some binding calls cover weakened binding; strength is not graded here. Where a sequence is shown, tags or fusion partners need not be part of it.

Chains of the proteins cited; added tags and fusions are not shown. Lines headed by an entry give the natural chain unless they say otherwise; changes in a name come on top.
UniProt P0A7C2: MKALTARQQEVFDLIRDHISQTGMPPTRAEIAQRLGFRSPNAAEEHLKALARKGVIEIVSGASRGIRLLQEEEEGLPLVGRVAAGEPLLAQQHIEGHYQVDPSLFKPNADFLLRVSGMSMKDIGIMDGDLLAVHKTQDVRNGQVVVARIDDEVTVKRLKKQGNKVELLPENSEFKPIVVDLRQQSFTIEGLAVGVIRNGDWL

T1: GST-TRIP fusion protein (GST-wild type TRIP, pEBG vector, expressed in 293 cells) (mouse) (UniProt Q8VIG6)
T1 sequence: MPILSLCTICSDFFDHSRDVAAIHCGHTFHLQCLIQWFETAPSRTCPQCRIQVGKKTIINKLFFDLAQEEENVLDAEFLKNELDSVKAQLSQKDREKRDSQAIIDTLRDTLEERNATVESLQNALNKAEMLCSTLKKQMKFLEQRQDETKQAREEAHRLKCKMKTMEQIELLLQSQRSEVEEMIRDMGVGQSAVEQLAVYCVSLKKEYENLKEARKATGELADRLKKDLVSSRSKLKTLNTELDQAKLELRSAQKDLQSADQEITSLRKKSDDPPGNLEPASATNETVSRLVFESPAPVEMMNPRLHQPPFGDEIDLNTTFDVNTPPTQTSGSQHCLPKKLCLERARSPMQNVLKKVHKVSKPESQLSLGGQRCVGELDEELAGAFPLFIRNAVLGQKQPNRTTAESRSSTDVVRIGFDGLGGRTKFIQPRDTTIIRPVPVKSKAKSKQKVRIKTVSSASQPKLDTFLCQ


Columns and labels:
[1] = target: LexA DNA binding domain-TRAF1 fusion protein (bait plasmid pEG202-TRAF1) (UniProt P0A7C2); assay: yeast two-hybrid, b-gal activity
[2] = target: LexA DNA binding domain-TRAF2 fusion protein (UniProt P0A7C2); assay: yeast two-hybrid, b-gal activity
[3] = target: T1, GST-TRIP fusion protein (GST-wild type TRIP, pEBG vector, expressed in 293 cells) (mouse); assay: coprecipitation from transfected 293 cells

Row | binding [1] | binding [2] | binding [3] | Binder
1 | binds | binds |  | mutant TRIP lacking the N-terminal RING finger motif (residues 56-275, putative coiled-coil region) fused to the transcription activation domain (protein, not shown: large carriers) KTIINKLFFDLAQEEENVLDAEFLKNELDSVKAQLSQKDREKRDSQAIIDTLRDTLEERNATVESLQNALNKAEMLCSTLKKQMKFLEQRQDETKQAREEAHRLKCKMKTMEQIELLLQSQRSEVEEMIRDMGVGQSAVEQLAVYCVSLKKEYENLKEARKATGELADRLKKDLVSSRSKLKTLNTELDQAKLELRSAQKDLQSADQEITSLRKKSDDPP
2 | binds | binds |  | mutant TRIP comprising the N-terminal half of the protein (residues 1-275) fused to the transcription activation domain (protein, not shown: large carriers) MPILSLCTICSDFFDHSRDVAAIHCGHTFHLQCLIQWFETAPSRTCPQCRIQVGKKTIINKLFFDLAQEEENVLDAEFLKNELDSVKAQLSQKDREKRDSQAIIDTLRDTLEERNATVESLQNALNKAEMLCSTLKKQMKFLEQRQDETKQAREEAHRLKCKMKTMEQIELLLQSQRSEVEEMIRDMGVGQSAVEQLAVYCVSLKKEYENLKEARKATGELADRLKKDLVSSRSKLKTLNTELDQAKLELRSAQKDLQSADQEITSLRKKSDDPP

The next lines start with the binder.

Row | Binder | binding [1] | binding [2] | binding [3]
3 | TRIP residues 56-185 fused to the transcription activation domain (protein, not shown: large carriers) KTIINKLFFDLAQEEENVLDAEFLKNELDSVKAQLSQKDREKRDSQAIIDTLRDTLEERNATVESLQNALNKAEMLCSTLKKQMKFLEQRQDETKQAREEAHRLKCKMKTMEQIELLLQSQRSEVEEMIR | binds | binds | 
4 | TRIP residues 186-275 fused to the transcription activation domain (protein, not shown: large carriers) DMGVGQSAVEQLAVYCVSLKKEYENLKEARKATGELADRLKKDLVSSRSKLKTLNTELDQAKLELRSAQKDLQSADQEITSLRKKSDDPP | binds | binds | 
5 | TRAF1 expressed in 293 cells (protein, UniProt P39428 1-409, looked up) MASSSAPDENEFQFGCPPAPCQDPSEPRVLCCTACLSENLRDDEDRICPKCRADNLHPVSPGSPLTQEKVHSDVAEAEIMCPFAGVGCSFKGSPQSMQEHEATSQSSHLYLLLAVLKEWKSSPGSNLGSAPMALERNLSELQLQAAVEATGDLEVDCYRAPCCESQEELALQHLVKEKLLAQLEEKLRVFANIVAVLNKEVEASHLALAASIHQSQLDREHILSLEQRVVELQQTLAQKDQVLGKLEHSLRLMEEASFDGTFLWKITNVTKRCHESVCGRTVSLFSPAFYTAKYGYKLCLRLYLNGDGSGKKTHLSLFIVIMRGEYDALLPWPFRNKVTFMLLDQNNREHAIDAFRPDLSSASFQRPQSETNVASGCPLFFPLSKLQSPKHAYVKDDTMFLKCIVDTSA |  |  | binds
